PubChem BioAssay AID1159578 | Peter MacCallum Cancer Centre, 2015
Purpose: 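Genome-wide hunt for genes controlling movement of lymphatic endothelial cells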 (primary screen). Cell system: human lymphatic endothelial cells. Reagent: siRNA pool against human genes, 40 nM. Duration: 48 h after transfection. Detection: 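Cells stained with dye and imaged after a scratch; covered wound area and nuclei counted, duplicates averaged, migration set against mock wells and turned into a robust z-score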. Reading the numbers: migration robust z-score: higher = faster migration into the scratch; nuclei per well: higher = more cells in the well. Hit rule: 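Migration changed when robust z exceeds 2 or falls below -2 and mean nuclei number is at least 3300; otherwise not called changed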. Calls: active = migration changed; inactive = no migration change, or too few cells.
The deposit covers about 18,000 reagents; shown is a random part of them. In the full data, about 1,030 (5.7%) were called active. 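Inactive calls also include pools with fewer than 3300 nuclei, whose migration was not assessed.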 Raw values are not corrected between plates. Entries without a mark were called inactive. Not all columns of the deposit are shown.

PAX4 (paired box 4) | migration robust z-score = 0.47; migration class with cell-count check = migration z between -2 and 2; enough cells; nuclei per well, duplicate mean = 6253
CLPX | migration robust z-score = 1.06; migration class with cell-count check = migration z between -2 and 2; enough cells; nuclei per well, duplicate mean = 5084
CFAP251 (cilia and flagella associated protein 251) | migration robust z-score = 3.17 (active); migration class with cell-count check = migration z above 2; enough cells; nuclei per well, duplicate mean = 5830
ACRV1 (acrosomal vesicle protein 1) | migration robust z-score = -0.6; migration class with cell-count check = migration z between -2 and 2; enough cells; nuclei per well, duplicate mean = 4461
VIM (vimentin) | migration robust z-score = 0.43; migration class with cell-count check = migration z between -2 and 2; enough cells; nuclei per well, duplicate mean = 4948
PPP5C (protein phosphatase 5 catalytic subunit) | migration robust z-score = 0.6; migration class with cell-count check = migration z between -2 and 2; enough cells; nuclei per well, duplicate mean = 4422
NIPAL3 (NIPA like domain containing 3) | migration robust z-score = 1.19; migration class with cell-count check = migration z between -2 and 2; enough cells; nuclei per well, duplicate mean = 6883
EPB41L3 (erythrocyte membrane protein band 4.1 like 3) | migration robust z-score = 2.25 (active); migration class with cell-count check = migration z above 2; enough cells; nuclei per well, duplicate mean = 7622
OR9K2 (olfactory receptor family 9 subfamily K member 2) | migration robust z-score = 0.38; migration class with cell-count check = migration z between -2 and 2; enough cells; nuclei per well, duplicate mean = 6512
GK (glycerol kinase) | migration robust z-score = 0.44; migration class with cell-count check = migration z between -2 and 2; enough cells; nuclei per well, duplicate mean = 4525
GATA5 (GATA binding protein 5) | migration robust z-score = 0.5; migration class with cell-count check = migration z between -2 and 2; enough cells; nuclei per well, duplicate mean = 5554
CNBD1 (cyclic nucleotide binding domain containing 1) | migration robust z-score = 0.16; migration class with cell-count check = migration z between -2 and 2; enough cells; nuclei per well, duplicate mean = 5017
MAN2B2 (mannosidase alpha class 2B member 2) | migration robust z-score = 0.3; migration class with cell-count check = migration z between -2 and 2; enough cells; nuclei per well, duplicate mean = 6444
OR9A4 (olfactory receptor family 9 subfamily A member 4) | migration robust z-score = 0.64; migration class with cell-count check = migration z between -2 and 2; enough cells; nuclei per well, duplicate mean = 6697
OR4N4 (olfactory receptor family 4 subfamily N member 4) | migration robust z-score = 0.54; migration class with cell-count check = migration z between -2 and 2; enough cells; nuclei per well, duplicate mean = 5750
ST6GAL1 (ST6 beta-galactoside alpha-2,6-sialyltransferase 1) | migration robust z-score = -0.73; migration class with cell-count check = migration z between -2 and 2; enough cells; nuclei per well, duplicate mean = 3906
PEX6 (peroxisomal biogenesis factor 6) | migration robust z-score = 1.25; migration class with cell-count check = migration z between -2 and 2; enough cells; nuclei per well, duplicate mean = 6154
ZNF141 (zinc finger protein 141) | migration robust z-score = -1.75; migration class with cell-count check = migration z between -2 and 2; enough cells; nuclei per well, duplicate mean = 4274
ENO2 (enolase 2) | migration robust z-score = 0.88; migration class with cell-count check = migration z between -2 and 2; enough cells; nuclei per well, duplicate mean = 6166
ATP9A (ATPase phospholipid transporting 9A) | migration robust z-score = 0.48; migration class with cell-count check = migration z between -2 and 2; enough cells; nuclei per well, duplicate mean = 5873
LTB4R2 (leukotriene B4 receptor 2) | migration robust z-score = -0.18; migration class with cell-count check = migration z between -2 and 2; enough cells; nuclei per well, duplicate mean = 6072
